Record: PubChem BioAssay AID1224826 (NIAID, 2016)
Screen: 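Regulators of Tlr4 signalling leading to Tnf-alpha expression in macrophages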 (primary screen). Cells: RAW264.7 G9 macrophages from mouse bearing reporters for p65 (GFP) and the Tnf promoter (mCherry). Knock-down reagent: siRNA pool against mouse genes, 100 nM. Timing: 16 h of LPS stimulation, after 2 days of siRNA transfection. Treatment: bacterial lipopolysaccharide (Salmonella minnesota R595), 10 ng/ml. Measurement: 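Nuclear mCherry signal of the Tnf promoter reporter measured by imaging after background removal, scaled to each plate median and turned into robust z-scores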. Direction: Tnf reporter robust z-score: higher = stronger Tnf promoter reporter signal after LPS; Tnf reporter intensity: higher = stronger Tnf promoter reporter signal. Rule for the call: 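a well counts as active at a score of -1.3 or below (Tlr4 knock-down control median) or above 3 (raised signal); controls and wells holding fewer than 50 cells are excluded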. Meaning of the calls: active = Tnf reporter clearly lowered or raised; inactive = no clear change in Tnf reporter.
The whole screen tested about 17,000 reagents; this is a part drawn at random. In the full data, about 1,110 (6.6%) are marked active. 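Active means lowered or raised reporter signal; replicate intensities are raw and not normalised per plate.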 A number with no mark means an inactive call. Further read-outs or replicates are left out here.

Gene	Tnf reporter robust z-score	fewer than 50 cells in well	Tnf reporter intensity, replicate 1
Pcid2 (PCI domain containing 2)	-1.36 (active)	enough cells in well	71.6
Atp5pf (ATP synthase peripheral stalk subunit F6)	1.33	enough cells in well	178
Smad9 (SMAD family member 9)	-0.55	enough cells in well	211
Spcs1 (signal peptidase complex subunit 1 homolog (S. cerevisiae))	-0.24	enough cells in well	199
G6pdx (glucose-6-phosphate dehydrogenase X-linked)	0.95	enough cells in well	378
Hdc (histidine decarboxylase)	0.87	enough cells in well	253
Kcnc4	0.02	enough cells in well	206
Rab39b (RAB39B, member RAS oncogene family)	-0.95	enough cells in well	77
Ptprh (protein tyrosine phosphatase receptor type H)	0.29	enough cells in well	338
Edar (ectodysplasin-A receptor)	-0.64	enough cells in well	198
Klf3 (Kruppel-like transcription factor 3 (basic))	-0.76	enough cells in well	177
Nab2 (Ngfi-A binding protein 2)	-0.77	enough cells in well	183
Hycc2 (hyccin PI4KA lipid kinase complex subunit 2)	1.69	enough cells in well	169
Or10g1 (olfactory receptor family 10 subfamily G member 1)	0.36	enough cells in well	173
Rpf1 (ribosome production factor 1 homolog)		fewer than 50 cells per well; well left out of calls	124
Ifit1bl2	-0.3	enough cells in well	150
Sorcs1 (sortilin-related VPS10 domain containing receptor 1)	-0.51	enough cells in well	222
Spink8 (serine peptidase inhibitor, Kazal type 8)	0.12	enough cells in well	185
Pak1ip1 (PAK1 interacting protein 1)	0.73	enough cells in well	155
4933411G06Rik (RIKEN cDNA 4933411G06 gene)		fewer than 50 cells per well; well left out of calls	179
Gk (glycerol kinase)	-1.22	enough cells in well	124
Efemp2	0.1	enough cells in well	217
1700055D18Rik (RIKEN cDNA 1700055D18 gene)	0.78	enough cells in well	331
Eif2s2 (eukaryotic translation initiation factor 2 subunit 2 beta)	-1.43 (active)	enough cells in well	105
